The source of these data is paper PMC10443802 (JCI Insight, 2023).

The series relates to OATP1B2. Briefly: Untargeted metabolomics of plasma and DRG, WT vs OATP1B2-deficient mice. It is filed as in vivo, mouse.
Where [1] appears, read: supplement sheet "Figure 5B" (volcano plot).
Setting [2] is: Figure 5B source data (volcano plot), log2 fold change of metabolite level.

With 4-ethylcatechol sulfate, the Log2FoldChange under setting [1] was 0.9486. In turn, lactate registered a Log2FoldChange (sheet "Figure 5C") of -0.2345 and a Log2FoldChange (supplement sheet "Figure 5B") of 0.1763. Regarding fumarate, the Log2FoldChange is given as -0.152 (sheet "Figure 5C") and 0.2141 under setting [1].

Regarding hippurate, the Log2FoldChange was determined as 0.6229 (sheet "Figure 5C") and 0.4751 under setting [1]. As to (N(1) + N(8))-acetylspermidine, the Log2FoldChange (sheet "Figure 5C") is given as 0.189. On the same count and under the same terms, the result for dimethylarginine (SDMA + ADMA) reads 0.189.

enterolactone sulfate registered a Log2FoldChange under setting [1] of 1.774. In turn, 2-hydroxystearate returned a Log2FoldChange (supplement sheet "Figure 5B") of 0.01436. Turning to gentisate, the Log2FoldChange under setting [2] was -0.304. Under “supplement sheet "Figure 5B"”, “linolenate [alpha or gamma; (18:3n3 or 6)]” gave a Log2FoldChange of -0.1203.

S-carboxymethyl-L-cysteine displayed a Log2FoldChange (supplement sheet "Figure 5B") of 0.2141. Turning to tartarate, the Log2FoldChange under setting [2] is -0.3959.

Take “oleoyl-arachidonoyl-glycerol (18:1/20:4) [2]*”: the Log2FoldChange runs as follows: (sheet "Figure 5C") -0.4344; under setting [1], 0.3334. S-methylcysteine sulfoxide: under setting [2], the Log2FoldChange is -0.3401.

On to dihomo-linolenate (20:3n3 or n6), for which the Log2FoldChange (sheet "Figure 5C") was 0.251. On the same count and under the same terms, the result for benzoate reads 0.2141. On to S-methylcysteine, for which the Log2FoldChange was -0.4941 under setting [2] and -0.1681 (sheet "Figure 5C"). Under setting [1], equol sulfate gave a Log2FoldChange of 1.367. Consider maltotetraose, for which the Log2FoldChange under setting [1] came out at 0.2869. Regarding tetradecadienedioate (C14:2-DC)*, the Log2FoldChange under setting [1] amounted to 1.0635.

In the case of maleate, under setting [1], the Log2FoldChange worked out at 0.3674. On the same count and under the same terms, the result for sphingomyelin (d17:1/14:0, d16:1/15:0)* reads 0.4005. Turning to sphingomyelin (d18:1/20:0, d16:1/22:0)*, the Log2FoldChange is reported as -0.1681 under setting [2] and -0.4941 (sheet "Figure 5C"). taurocholenate sulfate* displayed a Log2FoldChange under setting [1] of 0.3674. gluconate displayed a Log2FoldChange (sheet "Figure 5C") of 0.3334. In turn, 13-HODE + 9-HODE gave a Log2FoldChange under setting [1] of 0.251.
